Some of the results follow.
Tests used:
Test in all cases: glycan array binding signal (z-score within array); higher = stronger binding
Settings in all cases: glycan notation: IUPAC condensed, linker removed
Fuc(a1-3)GlcNAc = target: Fuc(a1-3)GlcNAc
How it was run: (§1)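 The binding signal is a Z-score computed within each array. Data were drawn from 3228 arrays in the Consortium for Functional Glycomics database, restricted to those with a known protein sequence. Scores were averaged over arrays of the same protein sequence at different concentrations or buffers, and over linkers, and negative values can be taken as non-binding.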

[1] = target: Fuc(a1-3)[Gal(b1-4)]Glc6S
How it was run: as §1

[2] = target: Fuc(a1-3)[Gal(b1-4)]GlcNAc
How it was run: as §1

[3] = target: Fuc(a1-3)[Gal(b1-4)]GlcNAc(b1-2)Man
How it was run: as §1

[4] = target: Fuc(a1-3)[Gal(b1-4)]GlcNAc(b1-2)Man(a1-3)[Fuc(a1-3)[Gal(b1-4)]GlcNAc(b1-2)Man(a1-6)]Man(b1-4)GlcNAc(b1-4)GlcNAc
How it was run: as §1

[5] = target: Fuc(a1-3)[Gal(b1-4)]GlcNAc(b1-2)Man(a1-3)[Fuc(a1-3)[Gal(b1-4)]GlcNAc(b1-2)Man(a1-6)]Man(b1-4)GlcNAc(b1-4)[Fuc(a1-6)]GlcNAc
How it was run: as §1

[6] = target: Fuc(a1-3)[Gal(b1-4)]GlcNAc(b1-3)Gal(b1-3)[Fuc(a1-4)]GlcNAc
How it was run: as §1

[7] = target: Fuc(a1-3)[Gal(b1-4)]GlcNAc(b1-3)Gal(b1-4)[Fuc(a1-3)]GlcNAc
How it was run: as §1

[8] = target: Fuc(a1-3)[Gal(b1-4)]GlcNAc(b1-3)Gal(b1-4)[Fuc(a1-3)]GlcNAc(b1-3)Gal(b1-4)[Fuc(a1-3)]GlcNAc
How it was run: as §1

[9] = target: Fuc(a1-3)[Gal(b1-4)]GlcNAc(b1-3)GalNAc
How it was run: as §1

[10] = target: Fuc(a1-3)[Gal(b1-4)]GlcNAc(b1-6)GalNAc
How it was run: as §1

[11] = target: Fuc(a1-3)[Gal(b1-4)]GlcNAc(b1-6)[Gal(b1-3)GlcNAc(b1-3)]Gal(b1-4)Glc
How it was run: as §1

[12] = target: Fuc(a1-3)[Gal(b1-4)]GlcNAc6S
How it was run: as §1

[13] = target: Fuc(a1-3)[Gal3S(b1-4)]Glc
How it was run: as §1

[14] = target: Fuc(a1-3)[Gal3S(b1-4)]GlcNAc
How it was run: as §1

[15] = target: Fuc(a1-3)[Gal3S(b1-4)]GlcNAc6S
How it was run: as §1

[16] = target: Fuc(a1-3)[GalNAc(b1-4)]GlcNAc
How it was run: as §1

[17] = target: Fuc(a1-3)[GalNAc(b1-4)]GlcNAc6S
How it was run: as §1

Fuc(a1-4)GlcNAc = target: Fuc(a1-4)GlcNAc
How it was run: as §1

Fuc(b1-3)GlcNAc = target: Fuc(b1-3)GlcNAc
How it was run: as §1

Gal(a1-2)Gal = target: Gal(a1-2)Gal
How it was run: as §1

Gal(a1-3)Gal = target: Gal(a1-3)Gal
How it was run: as §1

Gal(a1-3)Gal(b1-3)GlcNAc = target: Gal(a1-3)Gal(b1-3)GlcNAc
How it was run: as §1

[18] = target: Gal(a1-3)Gal(b1-3)GlcNAc(b1-2)Man
How it was run: as §1

[19] = target: Gal(a1-3)Gal(b1-3)GlcNAc(b1-2)Man(a1-3)[Gal(a1-3)Gal(b1-3)GlcNAc(b1-2)Man(a1-6)]Man(b1-4)GlcNAc(b1-4)GlcNAc
How it was run: as §1

[20] = target: Gal(a1-3)Gal(b1-3)GlcNAc(b1-3)GalNAc
How it was run: as §1

[21] = target: Gal(a1-3)Gal(b1-3)GlcNAc(b1-6)GalNAc
How it was run: as §1

[22] = target: Gal(a1-3)Gal(b1-3)[Fuc(a1-4)]GlcNAc(b1-2)Man(a1-3)[Gal(a1-3)Gal(b1-3)[Fuc(a1-4)]GlcNAc(b1-2)Man(a1-6)]Man(b1-4)GlcNAc(b1-4)GlcNAc
How it was run: as §1

Gal(a1-3)Gal(b1-4)Glc = target: Gal(a1-3)Gal(b1-4)Glc
How it was run: as §1

Gal(a1-3)Gal(b1-4)GlcNAc = target: Gal(a1-3)Gal(b1-4)GlcNAc
How it was run: as §1

[23] = target: Gal(a1-3)Gal(b1-4)GlcNAc(b1-2)Man
How it was run: as §1

[24] = target: Gal(a1-3)Gal(b1-4)GlcNAc(b1-2)Man(a1-3)[Gal(a1-3)Gal(b1-4)GlcNAc(b1-2)Man(a1-6)]Man(b1-4)GlcNAc(b1-4)GlcNAc
How it was run: as §1

[25] = target: Gal(a1-3)Gal(b1-4)GlcNAc(b1-3)GalNAc
How it was run: as §1

[26] = target: Gal(a1-3)Gal(b1-4)GlcNAc(b1-6)GalNAc
How it was run: as §1

[27] = target: Gal(a1-3)Gal(b1-4)[Fuc(a1-3)]GlcNAc
How it was run: as §1

[28] = target: Gal(a1-3)Gal(b1-4)[Fuc(a1-3)]GlcNAc(b1-2)Man(a1-3)[Gal(a1-3)Gal(b1-4)[Fuc(a1-3)]GlcNAc(b1-2)Man(a1-6)]Man(b1-4)GlcNAc(b1-4)GlcNAc
How it was run: as §1

Gal(a1-3)GalNAc = target: Gal(a1-3)GalNAc
How it was run: as §1

B1: PX14375D-bvu-513-34-513 (Bacteroides vulgatus) (protein)
chain: TEDTFWKDETDFNLALTSCYTPLKNALNGGYYGTRGVMLRIARADEVDFRNDISDVYTVNRFTNSNTNSLTQGMFYQFYNALYRTNSIMQKLEEKKEQFSTDFQNSVKGECLFIRGFYLFQLAKEFKDAPLRLTASQSPSTFPLAKSSQADIWAQAKEDLKTAASLLPITNKIGKPTQGAAYAALGKIYVYEENWQEAINVLEPLTQNPYTYKLVEDFNWNFDDTHENNAESIFELLIEDVGGTDLWGDGENINSTQSNTRPKEYAAAEVGGWYEANPTQQIMDIFWKEKDKDGNFDYRARCSVAWDYEGCTYYQRPFREVFAQDKWKTYWILKYQNWKTQKDEPAPPKSFINERAIRYADVLLMLAEAYMNKGALDTSIGYINQIRRRANLNDYSGPITKEGVFEDLVHQRAIEFFVEGERFYDLRRWGLLEQTLKTCDDTRYKNYQTGKSDNINKFNYFPIPAKELDTNPLCTPSEGW
Q: For B1, which “glycan array binding signal (z-score)” value (Fuc(a1-3)GlcNAc) is on record?
A: -0.032

Q: And the “glycan array binding signal (z-score)” value [1]?
A: -0.277

Q: What about the “glycan array binding signal (z-score)” value [2] of the same binder?
A: -0.088

Q: And the “glycan array binding signal (z-score)” value [3]?
A: 2.96

Q: And the “glycan array binding signal (z-score)” value [4]?
A: -0.56

Q: What about the “glycan array binding signal (z-score)” value [5] of the same binder?
A: 0.751

Q: What about the “glycan array binding signal (z-score)” value [6] of the same binder?
A: -0.069

Q: What about the “glycan array binding signal (z-score)” value [7] of the same binder?
A: -0.273

Q: And the “glycan array binding signal (z-score)” value [8]?
A: -0.287

Q: What about the “glycan array binding signal (z-score)” value [9] of the same binder?
A: -0.531

Q: And the “glycan array binding signal (z-score)” value [10]?
A: 0.851

Q: What about the “glycan array binding signal (z-score)” value [11] of the same binder?
A: -0.085

Q: And the “glycan array binding signal (z-score)” value [12]?
A: 0.649

Q: What about the “glycan array binding signal (z-score)” value [13] of the same binder?
A: -1.12

Q: And the “glycan array binding signal (z-score)” value [14]?
A: -0.168

Q: What about the “glycan array binding signal (z-score)” value [15] of the same binder?
A: -0.673

Q: And the “glycan array binding signal (z-score)” value [16]?
A: 0.107

Q: What about the “glycan array binding signal (z-score)” value [17] of the same binder?
A: 0.126

Q: What about the “glycan array binding signal (z-score)” value (Fuc(a1-4)GlcNAc) of the same binder?
A: 0.758

Q: And the “glycan array binding signal (z-score)” value (Fuc(b1-3)GlcNAc)?
A: 0.388

Q: And the “glycan array binding signal (z-score)” value (Gal(a1-2)Gal)?
A: 0.16

Q: What about the “glycan array binding signal (z-score)” value (Gal(a1-3)Gal) of the same binder?
A: -0.16

Q: What about the “glycan array binding signal (z-score)” value (Gal(a1-3)Gal(b1-3)GlcNAc) of the same binder?
A: -0.197

Q: And the “glycan array binding signal (z-score)” value [18]?
A: -0.81

Q: And the “glycan array binding signal (z-score)” value [19]?
A: 0.315

Q: And the “glycan array binding signal (z-score)” value [20]?
A: -1.09

Q: What about the “glycan array binding signal (z-score)” value [21] of the same binder?
A: -0.932

Q: What about the “glycan array binding signal (z-score)” value [22] of the same binder?
A: 0.674

Q: What about the “glycan array binding signal (z-score)” value (Gal(a1-3)Gal(b1-4)Glc) of the same binder?
A: -0.855

Q: And the “glycan array binding signal (z-score)” value (Gal(a1-3)Gal(b1-4)GlcNAc)?
A: -0.865

Q: What about the “glycan array binding signal (z-score)” value [23] of the same binder?
A: -0.309

Q: And the “glycan array binding signal (z-score)” value [24]?
A: -0.241

Q: And the “glycan array binding signal (z-score)” value [25]?
A: -0.543

Q: What about the “glycan array binding signal (z-score)” value [26] of the same binder?
A: 0.081

Q: What about the “glycan array binding signal (z-score)” value [27] of the same binder?
A: 0.144

Q: And the “glycan array binding signal (z-score)” value [28]?
A: 0.281

Q: What about the “glycan array binding signal (z-score)” value (Gal(a1-3)GalNAc) of the same binder?
A: 0.023

From the supplement of paper PMC8728848
